Assay results published in PubChem BioAssay AID504847 (National Center for Advancing Translational Sciences (NCATS), 2011).
Screen size: about 400,000 compounds; about 3,700 (0.93%) were called active. The inconclusive results got no clear call from the source; some entries with a clear call stand among them for comparison. Calls follow the shape of the dose curve; as a rule, active = well fitted inhibition curve with a large enough effect; inconclusive = small, poorly fitted or top-dose-only effect, or another doubt; inactive = no such curve, though single readings can be large or run the other way. Potencies beside an inconclusive call are fits to weak or partial responses and may not hold up.

Sequences of proteins named here, by UniProt entry; tags and fusion partners are left off. A change or cut given only in a name is not applied to a line headed by its entry.
UniProt P11473: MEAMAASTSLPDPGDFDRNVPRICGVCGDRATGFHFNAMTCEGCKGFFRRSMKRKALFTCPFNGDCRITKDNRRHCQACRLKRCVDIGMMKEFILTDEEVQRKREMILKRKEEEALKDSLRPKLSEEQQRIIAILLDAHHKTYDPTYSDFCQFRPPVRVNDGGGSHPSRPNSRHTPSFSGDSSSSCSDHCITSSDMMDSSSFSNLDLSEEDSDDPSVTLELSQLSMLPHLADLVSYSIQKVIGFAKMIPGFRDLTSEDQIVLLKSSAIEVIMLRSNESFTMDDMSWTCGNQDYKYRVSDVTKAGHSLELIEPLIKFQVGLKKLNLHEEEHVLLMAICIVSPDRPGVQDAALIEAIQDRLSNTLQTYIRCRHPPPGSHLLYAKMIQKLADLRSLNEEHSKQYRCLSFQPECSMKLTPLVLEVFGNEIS

Target: Vitamin D3 receptor (Homo sapiens) (UniProt P11473)
Test: Inhibitors of the vitamin D receptor (VDR): qHTS
Conditions: VDR-SRC2-3 peptide fluorescence polarization, 2 h; max response, negative = inhibition: hits give low values
Procedure, shortened: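 After 23 nl compound addition and a short centrifugation, plates sat for 2 hours at ambient temperature; polarization of fluorescence then indicated loss of VDR binding to peptide SRC2-3.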
% is scaled to controls: 0 for no effect and ±100 for the full control effect; potency is read from the fitted curve at half-maximal effect.

SMILES	max response, negative = inhibition	Potency
COc1cc(NC(=O)c2cc(C3CC3)nc3c2c(C)nn3-c2ccc(C)cc2)cc(OC)c1	inactive: 4.12%	
CC(O)CNCCOc1ccccc1-c1ccccc1 (centres undefined)	inactive: 8.17%	
CC1(C)Cc2c(sc(NC(=O)C(=O)N3CCCCC3)c2C(=O)O)CO1		inconclusive: 2.82 µM [inhibitor, partial curve, poor fit]
Cc1ccc(S(=O)(=O)CCC(=O)c2ccc(O)cc2O)cc1		inconclusive: 89.1 µM [inhibitor, single point]
CN(C)c1ccc(CNC(=O)c2ccc(NC(=O)c3nsc4ccccc34)cc2)cc1	inactive: -2%	
CCC(=O)c1ccc(OCCn2cnc3ccccc32)cc1		inconclusive: 89.1 µM [inhibitor, single point]
COCCn1c(SC2CCCCC2=O)nnc1-c1ccncc1 (centres undefined)		inconclusive: 70.8 µM [inhibitor, partial curve]
COc1cccc(/C=C/C(=O)c2ccc3c(c2)OCCO3)c1OC		inconclusive: 17.8 µM [inhibitor, partial curve, poor fit]
CN1CCN(C(=O)c2sc(=S)n(-c3ccccc3)c2N)CC1		active: 44.7 µM
COc1cc(/C=C2/C(=N)N3C(=NC2=O)SN=C3S(C)(=O)=O)ccc1OS(=O)(=O)c1ccc(C)cc1		inconclusive: 25.1 µM [inhibitor, full curve, poor fit]
CCOC(=O)c1c(-c2ccc(F)cc2)csc1NC(=O)C1CC=CCC1C(=O)O (centres undefined)		inconclusive: 79.4 µM [inhibitor, partial curve]
Cc1ccc(-n2c(SCC(=O)c3c(N)n(C)c(=O)n(C)c3=O)nc3sc4c(c3c2=O)CCCC4)c(C)c1	inactive: -2.83%	
COc1ccc(CCNC(=O)CCCCCn2c(SCC(N)=O)nc3cc4c(cc3c2=O)OCO4)cc1OC		inconclusive: 89.1 µM [inhibitor, partial curve, poor fit]
O=C(O)CC1=C(Nc2ccccc2)C(=O)N(c2ccccc2)C1c1ccc(Cl)cc1 (centres undefined)		inconclusive: 89.1 µM [inhibitor, single point]
CC(C)C(=O)N1CCC(n2nccc2NC(=O)CCc2ccccc2)CC1		inconclusive: 15.8 µM [inhibitor, partial curve]
Cc1cc(C)nc(SCC(=O)c2ccc(Cl)cc2)n1		inconclusive: 89.1 µM [inhibitor, single point]
c1ccc(Cc2nn3c(-c4ccncc4)nnc3s2)cc1		inconclusive: 89.1 µM [inhibitor, single point]
CCOC(=O)C1=C(CN2CCN(C(=O)c3ccco3)CC2)NC(=O)NC1c1ccc(Cl)cc1 (centres undefined)		inconclusive: 89.1 µM [inhibitor, partial curve, poor fit]
CCc1cccc(NC(=O)CN2CCCN(Cc3cccc(C)c3)S2(=O)=O)c1	inactive: 15.4%	
COC(C/C=C/C(=O)[C@H](C)OCc1ccccc1)OC		inconclusive: 56.2 µM [inhibitor, partial curve, poor fit]
COC(=O)C1=C(C(=O)OC)[C@@H]2N(C)c3ccc(OC)cc3[C@@]23C[C@@H](C(=O)OC)N(C(=O)c2ccco2)C3=N1		inconclusive: 79.4 µM [inhibitor, partial curve]
COc1cccc(/C=C/c2ccc3cccc(O)c3n2)c1OC		inconclusive: 89.1 µM [inhibitor, partial curve, poor fit]

SMILES	max response, negative = inhibition	Potency
COc1cccc(C(=O)NC2C(=O)N3C(C(=O)O)=C(COC(C)=O)CSC23)c1 (centres undefined)		inconclusive: 44.7 µM [inhibitor, partial curve]
CCCCN1C(=O)C(NC(C)=O)c2ccccc21 (centres undefined)	inactive: 6.15%	
CC(=O)Nc1ccc(C=NNc2ccc([N+](=O)[O-])cc2S(=O)(=O)Nc2ccccc2C(=O)O)cc1		inconclusive: 89.1 µM [inhibitor, single point]
COc1cccc(Cn2c(=O)c(-c3ccc(Cl)cc3)nc3cncnc32)c1	inactive: 0%	
O=C(NN1C(=O)/C(=C/C=C/c2ccccc2)SC1=S)c1ccncc1		inconclusive: 35.5 µM [inhibitor, single point]
O=C(O)CCCn1cc(NC(=O)c2cc(F)c(F)cc2Cl)cn1		inconclusive: 39.8 µM [inhibitor, single point]
CC(C)CCC[C@@H](C)[C@@H]1CC[C@H]2C3=CC=C4CC(O)CC[C@]4(C)[C@H]3CC[C@@]21C (some centres undefined)		active: 28.2 µM
CCOC(=O)/C(=C\c1ccc(Cl)cc1)c1nc2sc(C)c(C)c2c(=O)[nH]1		active: 25.1 µM
COC(=O)c1cc(=O)n(Cc2ccc(F)cc2)c(=Nc2ccccc2)s1		inconclusive: 25.1 µM [inhibitor, single point]
COc1ccccc1N1CCN(C(=O)Cn2cnc3sc(C)c(S(=O)(=O)N4CCC(C)CC4)c3c2=O)CC1		inconclusive: 63.1 µM [inhibitor, partial curve, poor fit]
O=c1cc(-c2ccccc2)ss1		inconclusive: 89.1 µM [inhibitor, single point]
NC(=O)CSC1=N/C(=C\c2ccco2)C(=O)N1c1ccc(OC(F)F)cc1		inconclusive: 89.1 µM [inhibitor, single point]
CC1CCN(S(=O)(=O)c2ccc3c(c2)N(CC(=O)NCc2cccnc2)C(=O)CS3)CC1		inconclusive: 3.55 µM [inhibitor, full curve]
O=C(Cc1ccc(Cl)cc1)Nc1ccc(NC(=O)c2cccs2)cc1		inconclusive: 89.1 µM [inhibitor, single point]
O=C(COC(=O)c1cc(=O)[nH]c2ccccc12)Nc1ccc(F)cc1		inconclusive: 89.1 µM [inhibitor, single point]
CC(C)CC(CO)N1CCN(C(=O)c2cccc(Cl)c2)CCC1=O (centres undefined)		inconclusive: 5.01 µM [inhibitor, full curve, poor fit]
CNc1nc(SC(C)C(=O)Nc2ccc(Cl)c(Cl)c2)nc(N2CCOCC2)n1 (centres undefined)		inconclusive: 89.1 µM [inhibitor, partial curve, poor fit]
COc1cccc(Nc2n[nH]c(=S)s2)c1		inconclusive: 50.1 µM [inhibitor, partial curve, poor fit]
N#Cc1c(Sc2ncc(C(F)(F)F)cc2Cl)nsc1C/C=N\OCc1c(F)cccc1Cl		inconclusive: 56.2 µM [inhibitor, partial curve, poor fit]
Cc1cc(C(=O)OCC(=O)Nc2c(F)cccc2F)c(C)n1-c1ccccc1		inconclusive: 17.8 µM [inhibitor, single point]
Cc1cc(C)n(-c2nc(C)c(C)c(=O)n2CC(=O)Nc2ccc(Cl)c(Cl)c2)n1	inactive: 16.9%	
Cc1sc(N/N=C/c2cc([N+](=O)[O-])ccc2O)nc1-c1ccccc1		inconclusive: 39.8 µM [inhibitor, single point]

Whole records from above.
`Cc1sc(N/N=C/c2cc([N+](=O)[O-])ccc2O)nc1-c1ccccc1` in the list: Potency: inconclusive: 39.8 µM [inhibitor, single point]
`Cc1cc(C(=O)OCC(=O)Nc2c(F)cccc2F)c(C)n1-c1ccccc1` in the list: Potency: inconclusive: 17.8 µM [inhibitor, single point]
`CC(C)CCC[C@@H](C)[C@@H]1CC[C@H]2C3=CC=C4CC(O)CC[C@]4(C)[C@H]3CC[C@@]21C` (some centres undefined) in the list: Potency: active: 28.2 µM

Carrying on.

SMILES	max response, negative = inhibition	Potency
CCS(=O)(=O)c1oc(-c2ccc(F)cc2)nc1S(=O)(=O)c1ccc(Br)cc1		inconclusive: 10 µM [inhibitor, partial curve, poor fit]
Cc1ccccc1NC(=O)CCNC(=O)Cn1ccc2ccccc2c1=O	inactive: -10.4%	
CC(=O)NCc1ccc(C(=O)CSc2nnc(C3CC3)n2C2CC2)cc1		inconclusive: 79.4 µM [inhibitor, partial curve, poor fit]
CC(=O)C1=C(c2ccc(Cl)c(Cl)c2)N(C(C)=O)n2cnnc2S1		inconclusive: 2.51 µM [inhibitor, full curve, poor fit]
CCCCOc1ccc(C2(C)NC(=O)NC2=O)cc1 (centres undefined)		active: 25.1 µM
O=C(O)c1ccc(N2C(=O)c3cccnc3C2=O)cc1	inactive: 12.5%	
Cc1cccc(NC(=O)CSCC(=O)N2CCN(Cc3ccc4c(c3)OCO4)CC2)c1	inactive: 2.07%	
COc1cc(CNc2ccc(O)cc2)cc(Br)c1OCc1ccccc1F		active: 35.5 µM
O=C(OCCN1C(=O)c2cccc3c(N4CCOCC4)ccc(c23)C1=O)c1ccc(Cl)cc1Cl	inactive: 6.95%	
CCOCCCn1c(=NC(=O)c2cccnc2)c(C(=O)OCC)cc2c(=O)n3ccccc3nc21		inconclusive: 35.5 µM [inhibitor, full curve]
O=C(/C=C/c1ccc(N2CCCCC2)c([N+](=O)[O-])c1)c1ccc(S(=O)(=O)N2CCCC2)cc1		inconclusive: 50.1 µM [inhibitor, partial curve, poor fit]
Cc1nc(C)n(CC(=O)N2CCCC(C(=O)c3cccc4ccccc34)C2)n1 (centres undefined)	inactive: -1.79%	
O=C(O)C1CCC(NSc2ccccc2[N+](=O)[O-])CC1 (centres undefined)		active: 28.2 µM
COc1ccc(/C=N/NC(=O)c2cccc(S(=O)(=O)N3CCCC3)c2)cc1O	inactive: -0.354%	
O=[N+]([O-])c1ccc(S(=O)(=O)N2CCn3cccc3C2c2ccccc2F)cc1 (centres undefined)	inactive: -4.59%	
CCOC(=O)CSc1nnc2c3ccccc3n(C)c2n1		inconclusive: 89.1 µM [inhibitor, single point]
O=C(CN1CCN(S(=O)(=O)c2ccc(Cl)s2)CC1)N1CCOCC1	inactive: 1.38%	
Cc1ccc(Sc2ncccc2COC(=O)Nc2ccccc2)cc1		inconclusive: 89.1 µM [inhibitor, single point]
COc1cc(/C=N\Nc2nc(-c3cccs3)c(NC(C)=O)s2)ccc1O		inconclusive: 28.2 µM [inhibitor, single point]
O=C(NCC(=O)N(c1cccnc1)C(C(=O)NC1CCCCC1)c1ccccc1F)c1ccco1 (centres undefined)	inactive: 3.39%	
